# Assay results as given in publication PMC3665532.
# These are yes or no findings as the source states them, for the method shown. In cells and extracts the contact can be indirect. A result given as binding can be weak or reduced; the word gives no strength.
# B1: Vav2 (guanine nucleotide exchange factor), endogenous in HeLa cells (protein, UniProt P52735 1-878)
# chain: MEQWRQCGRWLIDCKVLPPNHRVVWPSAVVFDLAQALRDGVLLCQLLHNLSPGSIDLKDINFRPQMSQFLCLKNIRTFLKVCHDKFGLRNSELFDPFDLFDVRDFGKVISAVSRLSLHSIAQNKGIRPFPSEETTENDDDVYRSLEELADEHDLGEDIYDCVPCEDGGDDIYEDIIKVEVQQPMIRYMQKMGMTEDDKRNCCLLEIQETEAKYYRTLEDIEKNYMSPLRLVLSPADMAAVFINLEDLIKVHHSFLRAIDVSVMVGGSTLAKVFLDFKERLLIYGEYCSHMEHAQNTLNQLLASREDFRQKVEECTLKVQDGKFKLQDLLVVPMQRVLKYHLLLKELLSHSAERPERQQLKEALEAMQDLAMYINEVKRDKETLRKISEFQSSIENLQVKLEEFGRPKIDGELKVRSIVNHTKQDRYLFLFDKVVIVCKRKGYSYELKEIIELLFHKMTDDPMNNKDVKKSHGKMWSYGFYLIHLQGKQGFQFFCKTEDMKRKWMEQFEMAMSNIKPDKANANHHSFQMYTFDKTTNCKACKMFLRGTFYQGYMCTKCGVGAHKECLEVIPPCKFTSPADLDASGAGPGPKMVAMQNYHGNPAPPGKPVLTFQTGDVLELLRGDPESPWWEGRLVQTRKSGYFPSSSVKPCPVDGRPPISRPPSREIDYTAYPWFAGNMERQQTDNLLKSHASGTYLIRERPAEAERFAISIKFNDEVKHIKVVEKDNWIHITEAKKFDSLLELVEYYQCHSLKESFKQLDTTLKYPYKSRERSASRASSRSPASCASYNFSFLSPQGLSFASQGPSAPFWSVFTPRVIGTAVARYNFAARDMRELSLREGDVVRIYSRIGGDQGWWKGETNGRIGWFPSTYVEEEGIQ
# Tests used:
# [1] = target: GST-fused wild-type C-terminal domain of KCC3; assay: pull-down; GST fusion proteins immobilised on glutathione-sepharose beads; pre-cleared HeLa cell lysate; 1 h at 4°C; rinsed three times in RIPA buffer; Vav2 immunoblot; only the target purified
# [2] = target: GST-fused mPro C-terminal domain of KCC3 (PP→QA); assay: as above
binder,measurement,setting,value
B1,binding,[1],binds
same,binding,[2],binds
